According to the supplement of paper PMC8166895:
Structures can show the parent of a compound that is named as a salt. The list shows a part of the results. Most entries show no effect beyond the scatter of the controls.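 Melting temperature was read by differential scanning fluorimetry in a single-replicate pilot screen of a library of approved drugs and clinical or known-target compounds. Compounds raising the melting point by at least 2 °C were the top stabilizing hits, and negative shifts mean destabilization.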 Where a SMILES comes first, the peptide text is derived from it. The star is where a group is joined. Cbz = O=C(OCc1ccccc1)*; CH2F = FC*

The compounds below were run on SARS-CoV-2 main protease (Mpro, nsp5) (assay: thermal shift ΔTm of Mpro relative to plate average Tm; higher = stronger thermal stabilization of Mpro (binding)). Conditions: 10 µM; protein concentration 1 µM.

SMILES | thermal shift ΔTm of Mpro
CC1CC(OC(=O)C(O)c2ccccc2)CC(C)(C)C1 (stereo unspecified) [Cyclandelate] | -0.0869 °C
COc1ccc(C(Cl)=C(c2ccc(OC)cc2)c2ccc(OC)cc2)cc1 [Chlorotrianisene] | -0.027 °C
Cc1oncc1C(=O)Nc1ccc(C(F)(F)F)cc1 [Leflunomide] | 0.183 °C
CCOC(=O)c1c(N)sc2c1CCN(Cc1ccccc1)C2 [Tinoridine hydrochloride] | -0.228 °C
O=C(O)c1cccnc1Nc1cccc(C(F)(F)F)c1 [Niflumic acid] | 0.134 °C
Cc1cn([C@H]2O[C@@H](CO)[C@H](O)[C@H]2F)c(=O)[nH]c1=O [Clevudine] | -0.0873 °C
CC(CCc1ccccc1)NCC(O)c1ccc(O)c(C(N)=O)c1 (stereo unspecified) [Labetalol HCl] | 0.045 °C
NC1(C(=O)N[C@@H](CCO)c2ccc(Cl)cc2)CCN(c2ncnc3[nH]ccc23)CC1 | -0.227 °C
CCOC(=O)[C@H](CCc1ccccc1)N[C@@H](C)C(=O)N1Cc2ccccc2C[C@H]1C(=O)O [Quinapril HCl] | 0.0714 °C
Cc1cc(C)nc(O)n1.O=C(Nc1ccc([N+](=O)[O-])cc1)Nc1ccc([N+](=O)[O-])cc1 [Nicarbazin] | 0.154 °C
NC(Cc1ccc(Cl)cc1)C(=O)O (stereo unspecified) [Fenchlonine] | 0.228 °C
Cc1cc(C(C)(C)C)c(O)c(C)c1CC1=NCCN1 [Oxymetazoline hydrochloride] | -0.00545 °C
CC(=O)O[C@]1(C(C)=O)CC[C@H]2[C@@H]3C[C@H](C)C4=CC(=O)C=C[C@]4(C)[C@@]3(F)[C@@H](O)C[C@@]21C [Fluorometholone Acetate] | -0.121 °C
CCCC(CCC)C(=O)NCC(N)=O [Valrocemide] | -0.0352 °C
Cc1ccc(-c2csc(NC(=O)c3ccccc3)n2)c(C)c1 | -0.157 °C
Cc1cc2cc(Oc3ccnc(Nc4cccc(CS(=O)(=O)NCCN(C)C)c4)n3)ccc2[nH]1 [Sulfatinib] | 0.0817 °C
COc1ccc([C@@H]2CC(=O)c3c(O)cc(O[C@@H]4O[C@H](CO[C@@H]5O[C@@H](C)[C@H](O)[C@@H](O)[C@H]5O)[C@@H](O)[C@H](O)[C@H]4O)cc3O2)cc1O [Hesperidin] | -0.257 °C
COc1cc(-n2c(=S)[nH]c3ccccc3c2=O)c(Cl)cc1Cl [Mdivi-1] | -0.0233 °C
CCCCc1nc(-c2ccc(OCCCN(CC)CC)cc2)cn1-c1ccc(Oc2ccc(Cl)cc2)cc1 [Azeliragon] | -0.34 °C
CC(C)(C(=O)O)c1ccc(C(O)CCCN2CCC(C(O)(c3ccccc3)c3ccccc3)CC2)cc1 (stereo unspecified) [Fexofenadine HCl] | -0.0187 °C
O=c1cc(N2CCOCC2)oc2c(-c3cccc4c3sc3ccccc34)cccc12 | -0.647 °C
C[N+]1(C)[C@@H]2CC[C@H]1C[C@@H](OC(=O)C(O)c1ccccc1)C2 (stereo partly specified) [Homatropine Methylbromide] | -0.0635 °C
Cc1ccccc1-c1cc(N2CCN(C)CC2)ncc1N(C)C(=O)C(C)(C)c1cc(C(F)(F)F)cc(C(F)(F)F)c1 [Netupitant] | -0.292 °C

Looked up one by one from above, two records:
SMILES | thermal shift ΔTm of Mpro
Cc1cn([C@H]2O[C@@H](CO)[C@H](O)[C@H]2F)c(=O)[nH]c1=O [Clevudine] | -0.0873 °C
CC(C)(C(=O)O)c1ccc(C(O)CCCN2CCC(C(O)(c3ccccc3)c3ccccc3)CC2)cc1 (stereo unspecified) [Fexofenadine HCl] | -0.0187 °C

Additional records.

SMILES | thermal shift ΔTm of Mpro
COC(c1ccccc1)(c1ccccc1)[C@H](Oc1nc(C)cc(C)n1)C(=O)O [Ambrisentan] | 0.173 °C
CC(=O)Nc1ccc(Cc2ccc(NC(C)=O)cc2)cc1 | -0.189 °C
Cc1noc2c1-c1ccc(-c3cnn(C)c3)cc1C(c1ccc(Cl)cc1)=N[C@H]2CC(N)=O [BET bromodomain inhibitor] | 0.0284 °C
CO/N=C(\C(=O)N[C@@H]1C(=O)N2C(C(=O)[O-])=C(C[n+]3cccc4c3CCCC4)CS[C@H]12)c1csc(N)n1 [Cefquinome sulfate] | 0.282 °C
CC(C)N(C[C@H]1O[C@@H](n2cnc3c(N)ncnc32)[C@H](O)[C@@H]1O)[C@H]1C[C@@H](CCc2nc3cc(C(C)(C)C)ccc3[nH]2)C1 | -0.0616 °C
COC(=O)C1=C(C)NC(C)=C(C(=O)OCCN2CCN(C(c3ccccc3)c3ccccc3)CC2)C1c1cccc([N+](=O)[O-])c1 (stereo unspecified) [Manidipine] | 0.0612 °C
COC(=O)C1=C(C)NC(C)=C(C(=O)OCCN2CCN(C(c3ccccc3)c3ccccc3)CC2)C1c1cccc([N+](=O)[O-])c1 (stereo unspecified) [Manidipine 2HCl] | 0.0177 °C
COC(=O)C[C@H](NC(=O)[C@H](C)NC(=O)[C@@H](NC(=O)OCc1ccccc1)C(C)C)C(=O)CF (Cbz-Val-Ala-Asp(OMe)-CH2F) | 7.41 °C
CCCN1C[C@H](CSC)C[C@@H]2c3cccc4[nH]cc(c34)C[C@H]21 [Pergolide mesylate] | -0.0781 °C
Cc1cc(C(N)=O)ccc1-n1c(CCC(=O)O)ccc1-c1ccc(-n2ccnc2)cc1 | 0.0821 °C
CC(=O)Nc1ccccc1 [Acetanilide] | -0.0973 °C
O=C(/C=C/c1ccc2ccccc2n1)c1ccncc1 | -0.311 °C
O=C(NCCCn1ccnc1)c1cc(-c2ccco2)on1 | -0.0646 °C
Clc1ccc(NN=C(c2ccccc2)c2ccccn2)nc1 | 0.0593 °C
O=C(N/N=C/c1cc(O)c(O)cc1O)c1cc2ccccc2cc1O [Dyngo-4a] | 0.737 °C
CC(C)(C)C(=O)Oc1ccc(S(=O)(=O)Nc2ccccc2C(=O)NCC(=O)O)cc1 [Sivelestat] | 0.146 °C
CC(C(=O)O)c1ccc2c(c1)Cc1cccnc1O2 (stereo unspecified) [Pranoprofen] | 0.192 °C
C[C@H]1COc2c(C3(N)CC3)c(F)cc3c(=O)c(C(=O)O)cn1c23 [Pazufloxacin Mesylate] | -0.199 °C
CC[C@H]1OC(=O)C[C@@H](O)[C@H](C)[C@@H](O[C@@H]2O[C@H](C)[C@@H](O[C@H]3C[C@@](C)(O)[C@@H](O)[C@H](C)O3)[C@H](N(C)C)[C@H]2O)[C@@H](CC=O)C[C@@H](C)C(=O)/C=C/C(C)=C/[C@@H]1CO[C@@H]1O[C@H](C)[C@@H](O)[C@@H](OC)[C@H]1OC [Tylosin tartrate] | 0.0675 °C
O=C(/C=C/c1ccc(O)c(O)c1)c1ccc(O)cc1O [Butein] | 1.46 °C
C[C@H](Oc1ccc(S(C)(=O)=O)cc1C(=O)N1CCN(c2ncc(C(F)(F)F)cc2F)CC1)C(F)(F)F [Bitopertin] | -0.0836 °C
O=C(Cl)C(=O)c1c[nH]c2ccccc12 [Indole-3-Glyoxylyl Chloride] | 0.0433 °C
COc1ccc(Cl)cc1-c1cc(=O)[nH]c(=S)n1CC(N)=O | 0.015 °C
